From the M2OR odorant receptor database
Only a part is listed here, and it is no random draw. The calls were merged from several studies; some rest on single wells. This is one part of the list.

Chains of the proteins cited; added tags and fusions are not shown. A line that says so, or that is headed by a name, gives the form on record, which may keep a tag or linker.
O14AG, as listed by the source: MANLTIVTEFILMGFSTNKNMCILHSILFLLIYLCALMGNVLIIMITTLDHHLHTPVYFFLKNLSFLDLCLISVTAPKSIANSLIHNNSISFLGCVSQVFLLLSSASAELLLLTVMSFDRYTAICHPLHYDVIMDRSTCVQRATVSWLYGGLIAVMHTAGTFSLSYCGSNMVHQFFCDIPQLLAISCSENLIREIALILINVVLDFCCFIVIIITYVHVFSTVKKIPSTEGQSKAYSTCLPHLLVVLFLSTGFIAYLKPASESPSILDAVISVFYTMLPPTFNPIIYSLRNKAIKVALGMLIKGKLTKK

Key:
Settings in all cases: stereoisomer not certain
[1] = system: T1, O13C5
T1 sequence (whole entry): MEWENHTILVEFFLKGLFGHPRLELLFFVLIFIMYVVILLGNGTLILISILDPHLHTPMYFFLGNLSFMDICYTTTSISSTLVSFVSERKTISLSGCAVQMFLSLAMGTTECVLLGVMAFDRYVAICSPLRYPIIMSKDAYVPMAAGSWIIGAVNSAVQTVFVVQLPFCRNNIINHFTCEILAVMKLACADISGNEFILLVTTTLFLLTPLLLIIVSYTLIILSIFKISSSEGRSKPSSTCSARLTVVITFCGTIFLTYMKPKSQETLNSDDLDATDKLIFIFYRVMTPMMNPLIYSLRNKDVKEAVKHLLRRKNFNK
In short: (§1)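 Each entry records the cell line, G-protein, co-transfected protein and tags used. Methods varied with the source, often transient luciferase assays in mammalian cell lines. A receptor–molecule pair is called responsive (active) if the original authors judged its signal statistically different from baseline and non-responsive (inactive) otherwise.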

[2] = system: T2, O13C7
T2 sequence (whole entry): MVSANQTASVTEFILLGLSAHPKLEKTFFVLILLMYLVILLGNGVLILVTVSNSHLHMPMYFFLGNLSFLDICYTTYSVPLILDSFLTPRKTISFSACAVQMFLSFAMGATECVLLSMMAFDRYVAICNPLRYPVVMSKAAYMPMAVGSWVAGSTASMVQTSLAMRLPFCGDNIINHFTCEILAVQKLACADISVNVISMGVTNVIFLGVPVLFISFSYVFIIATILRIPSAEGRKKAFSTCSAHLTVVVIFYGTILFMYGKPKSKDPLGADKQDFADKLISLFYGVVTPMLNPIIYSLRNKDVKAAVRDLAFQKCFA
In short: as §1

[3] = system: T3, O13C9
T3 sequence (whole entry): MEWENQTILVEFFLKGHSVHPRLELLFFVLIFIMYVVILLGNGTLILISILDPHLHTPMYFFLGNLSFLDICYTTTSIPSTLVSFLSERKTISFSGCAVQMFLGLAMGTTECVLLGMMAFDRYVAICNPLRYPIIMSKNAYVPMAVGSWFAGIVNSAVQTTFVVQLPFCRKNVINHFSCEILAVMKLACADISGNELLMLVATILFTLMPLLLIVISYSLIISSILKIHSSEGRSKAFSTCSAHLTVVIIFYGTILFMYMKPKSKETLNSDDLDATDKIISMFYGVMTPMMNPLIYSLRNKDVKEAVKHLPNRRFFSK
In short: as §1

[4] = system: T4, O13D1
T4 sequence (whole entry): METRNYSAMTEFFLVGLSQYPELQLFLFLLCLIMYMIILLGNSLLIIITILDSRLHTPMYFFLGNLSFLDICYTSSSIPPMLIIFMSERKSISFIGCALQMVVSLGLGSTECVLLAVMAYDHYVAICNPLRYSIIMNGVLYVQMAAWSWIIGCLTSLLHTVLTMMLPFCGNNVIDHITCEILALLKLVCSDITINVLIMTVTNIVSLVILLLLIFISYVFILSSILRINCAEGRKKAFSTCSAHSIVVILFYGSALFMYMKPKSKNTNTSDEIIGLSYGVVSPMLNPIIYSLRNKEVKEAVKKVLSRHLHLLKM
In short: as §1

[5] = system: T5, O13D1; remark: listed apart in the source
T5 sequence (whole entry): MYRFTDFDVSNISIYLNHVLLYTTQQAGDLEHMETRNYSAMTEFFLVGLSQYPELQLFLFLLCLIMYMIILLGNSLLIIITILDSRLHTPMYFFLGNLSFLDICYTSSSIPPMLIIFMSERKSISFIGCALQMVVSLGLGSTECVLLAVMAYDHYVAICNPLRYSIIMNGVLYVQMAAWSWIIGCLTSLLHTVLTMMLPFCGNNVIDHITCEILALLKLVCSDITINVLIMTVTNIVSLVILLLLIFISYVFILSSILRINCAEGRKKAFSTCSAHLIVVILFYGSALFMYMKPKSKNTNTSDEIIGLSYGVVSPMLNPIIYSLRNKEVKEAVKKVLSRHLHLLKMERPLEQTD
In short: as §1

[6] = system: T6, O13F1
T6 sequence (whole entry): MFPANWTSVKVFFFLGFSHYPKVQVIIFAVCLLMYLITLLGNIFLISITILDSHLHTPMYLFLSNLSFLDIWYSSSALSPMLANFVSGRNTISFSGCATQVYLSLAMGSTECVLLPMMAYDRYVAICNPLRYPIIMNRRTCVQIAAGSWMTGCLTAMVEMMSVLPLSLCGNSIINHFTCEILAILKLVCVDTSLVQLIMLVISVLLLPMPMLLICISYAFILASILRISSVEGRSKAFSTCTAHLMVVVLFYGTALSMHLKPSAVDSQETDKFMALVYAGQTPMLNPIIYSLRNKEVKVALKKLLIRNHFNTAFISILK
In short: as §1

[7] = system: T7, O13G1
T7 sequence (whole entry): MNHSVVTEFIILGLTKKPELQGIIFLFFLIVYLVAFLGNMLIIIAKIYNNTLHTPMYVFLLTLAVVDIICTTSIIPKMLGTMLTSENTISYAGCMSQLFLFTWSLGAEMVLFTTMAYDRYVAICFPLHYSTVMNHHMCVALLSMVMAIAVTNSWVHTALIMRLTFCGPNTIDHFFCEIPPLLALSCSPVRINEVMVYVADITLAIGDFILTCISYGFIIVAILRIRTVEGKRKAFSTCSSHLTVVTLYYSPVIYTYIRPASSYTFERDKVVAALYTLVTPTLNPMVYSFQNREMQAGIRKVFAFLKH
In short: as §1

[8] = system: T8, O13J1
T8 sequence (whole entry): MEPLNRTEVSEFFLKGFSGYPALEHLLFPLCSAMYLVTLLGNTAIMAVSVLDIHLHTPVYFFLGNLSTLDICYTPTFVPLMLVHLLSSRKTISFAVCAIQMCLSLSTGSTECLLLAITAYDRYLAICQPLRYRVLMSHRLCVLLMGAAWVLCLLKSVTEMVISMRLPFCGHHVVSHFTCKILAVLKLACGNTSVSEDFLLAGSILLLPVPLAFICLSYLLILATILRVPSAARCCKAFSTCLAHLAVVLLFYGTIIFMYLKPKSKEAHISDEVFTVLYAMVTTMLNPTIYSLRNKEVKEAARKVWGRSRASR
In short: as §1

[9] = system: T9, O14A2
T9 sequence (whole entry): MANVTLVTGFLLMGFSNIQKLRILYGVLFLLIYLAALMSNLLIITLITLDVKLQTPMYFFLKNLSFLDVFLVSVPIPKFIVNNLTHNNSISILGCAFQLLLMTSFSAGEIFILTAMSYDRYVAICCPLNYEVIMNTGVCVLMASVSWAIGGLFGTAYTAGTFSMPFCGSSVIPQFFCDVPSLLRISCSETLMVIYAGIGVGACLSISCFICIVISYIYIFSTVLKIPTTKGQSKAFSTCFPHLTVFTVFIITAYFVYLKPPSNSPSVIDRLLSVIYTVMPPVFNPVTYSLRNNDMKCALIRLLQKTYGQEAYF
In short: as §1

[10] = system: T10, O14AG
T10 sequence (whole entry): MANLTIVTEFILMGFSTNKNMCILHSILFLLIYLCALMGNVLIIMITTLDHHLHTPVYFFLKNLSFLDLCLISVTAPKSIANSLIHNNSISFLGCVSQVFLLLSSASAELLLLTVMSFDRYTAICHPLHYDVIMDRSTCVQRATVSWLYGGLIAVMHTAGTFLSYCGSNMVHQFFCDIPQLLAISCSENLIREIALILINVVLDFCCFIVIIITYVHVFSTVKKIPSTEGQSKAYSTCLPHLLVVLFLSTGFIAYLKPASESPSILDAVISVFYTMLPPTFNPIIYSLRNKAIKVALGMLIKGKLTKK
In short: as §1

[11] = system: T11, O14CZ
T11 sequence (whole entry): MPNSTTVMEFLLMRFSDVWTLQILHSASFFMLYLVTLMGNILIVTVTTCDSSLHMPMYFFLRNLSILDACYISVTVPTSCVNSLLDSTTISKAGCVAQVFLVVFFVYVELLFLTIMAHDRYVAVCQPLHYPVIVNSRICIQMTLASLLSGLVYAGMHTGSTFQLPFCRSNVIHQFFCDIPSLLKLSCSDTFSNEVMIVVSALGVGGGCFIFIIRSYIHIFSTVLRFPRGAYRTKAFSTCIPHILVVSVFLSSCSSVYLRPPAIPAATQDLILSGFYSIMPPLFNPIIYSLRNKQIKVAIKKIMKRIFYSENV
In short: as §1

[12] = system: T12, O14I1
T12 sequence (whole entry): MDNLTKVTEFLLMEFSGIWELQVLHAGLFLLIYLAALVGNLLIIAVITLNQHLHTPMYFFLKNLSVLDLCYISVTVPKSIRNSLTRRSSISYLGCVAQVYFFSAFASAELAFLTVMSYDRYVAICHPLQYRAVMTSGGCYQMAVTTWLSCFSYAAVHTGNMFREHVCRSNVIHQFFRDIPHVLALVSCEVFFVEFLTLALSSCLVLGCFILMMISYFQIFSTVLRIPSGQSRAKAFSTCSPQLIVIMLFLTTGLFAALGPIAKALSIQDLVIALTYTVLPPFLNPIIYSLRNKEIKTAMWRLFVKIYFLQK
In short: as §1

[13] = system: T13, O14J1
T13 sequence (whole entry): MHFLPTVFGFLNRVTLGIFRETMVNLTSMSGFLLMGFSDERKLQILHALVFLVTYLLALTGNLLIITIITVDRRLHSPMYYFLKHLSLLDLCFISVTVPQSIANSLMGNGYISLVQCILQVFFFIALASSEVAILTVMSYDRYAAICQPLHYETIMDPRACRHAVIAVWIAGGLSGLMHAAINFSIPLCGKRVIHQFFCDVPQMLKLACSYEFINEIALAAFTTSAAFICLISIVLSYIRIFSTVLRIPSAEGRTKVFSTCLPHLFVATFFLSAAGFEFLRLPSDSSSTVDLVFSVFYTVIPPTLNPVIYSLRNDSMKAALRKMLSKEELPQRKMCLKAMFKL
In short: as §1

[14] = system: T14, O14K1
T14 sequence (whole entry): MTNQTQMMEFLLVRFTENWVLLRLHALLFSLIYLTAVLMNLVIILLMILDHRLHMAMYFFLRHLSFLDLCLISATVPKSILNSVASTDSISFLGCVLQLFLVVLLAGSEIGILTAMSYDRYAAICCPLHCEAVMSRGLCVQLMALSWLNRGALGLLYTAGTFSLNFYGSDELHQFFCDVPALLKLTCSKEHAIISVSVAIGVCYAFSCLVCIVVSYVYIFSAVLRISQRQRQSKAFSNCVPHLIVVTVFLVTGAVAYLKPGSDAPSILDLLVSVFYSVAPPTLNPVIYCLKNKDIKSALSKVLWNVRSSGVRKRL
In short: as §1

[15] = system: T15, O1440
T15 sequence (whole entry): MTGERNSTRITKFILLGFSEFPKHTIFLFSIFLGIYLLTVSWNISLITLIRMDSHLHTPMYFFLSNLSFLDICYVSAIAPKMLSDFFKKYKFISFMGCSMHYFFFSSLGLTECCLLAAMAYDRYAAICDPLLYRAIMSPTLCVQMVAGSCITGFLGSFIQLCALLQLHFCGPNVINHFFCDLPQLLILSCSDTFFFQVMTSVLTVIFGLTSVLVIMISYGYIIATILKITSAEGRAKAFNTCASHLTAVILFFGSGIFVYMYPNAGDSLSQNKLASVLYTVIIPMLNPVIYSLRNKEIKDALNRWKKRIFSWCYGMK
In short: as §1

[16] = system: T16, O1440; remark: listed apart in the source
T16 sequence (whole entry): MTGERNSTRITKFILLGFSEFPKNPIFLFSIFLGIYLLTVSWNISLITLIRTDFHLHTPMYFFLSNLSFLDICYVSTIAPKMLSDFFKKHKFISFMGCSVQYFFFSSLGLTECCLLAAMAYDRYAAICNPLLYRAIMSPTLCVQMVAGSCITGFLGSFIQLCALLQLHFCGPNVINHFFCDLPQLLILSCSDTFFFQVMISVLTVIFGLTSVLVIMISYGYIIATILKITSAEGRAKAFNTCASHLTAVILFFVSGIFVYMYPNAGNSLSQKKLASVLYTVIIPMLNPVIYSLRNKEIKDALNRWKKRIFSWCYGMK
In short: as §1

[17] = system: O14AG; remark: listed apart in the source
In short: as §1

[18] = system: O14AG; remark: listed apart in the source
In short: as §1

Measured: odorant receptor agonist call

CC1CCC(C(C)C)C(O)C1 (stereo not drawn)
active: [1] | [4] | [12]
not listed: [15] | [16] | [17] | [18]
inactive: all other assays above

O=C1CCCCC1
not listed: [17] | [18]
inactive: all other assays above

COC(=O)c1ccccc1
not listed: [15] | [16] | [17] | [18]
inactive: all other assays above

CC(C)CC(=O)O
not listed: [15] | [16] | [17] | [18]
inactive: all other assays above

CCCCCCCOC(C)=O
not listed: [15] | [16] | [17] | [18]
inactive: all other assays above

CC(=O)OCC=C(C)CCC=C(C)C
not listed: [15] | [16]
inactive: all other assays above
